These results are taken from patent US9993553B2, “Methods and compositions for targeted release of molecules from nanoscale carriers” (The Regents of the University of California, priority 2013, dated 2018).

The data set concerns MCF-7 cells. The data set can be described thus: Flow cytometry (fluorometry-calibrated) of DOX uptake and X-ray triggered release in cells. The format is cell-based. The settings on record: 12 hours incubation, 100 nM DOX. For orientation: Flow cytometry measures light scatter and fluorescence of single cells or particles in a stream.

Several values for one entry are separate records, joined by “and”; a condition that tells them apart may be missing. Equal values may be shown once.

As for `COc1cccc2c1C(=O)c1c(O)c3c(c(O)c1C2=O)C[C@@](O)(C(=O)CO)C[C@@H]3O[C@H]1C[C@H](N)[C@H](O)[C@H](C)O1` [DOX, doxorubicin], the “DOX uptake, average number per cell” value is ~24 million per cell and 24 ± 2.5 million per cell.
